Weaker means in comparison with the reference protein, sequence or condition of that experiment.
Biological target: AF647-p53 (p53-SNAP labeled with AF647) (human) (UniProt P04637)
Assay: EMSA
Conditions: apparent affinity decreased slightly, same mobility as wild type complex; EMSA: 25 mM HEPES pH 7.9, 50 mM KCl, 2.5 mM MgCl2, 1 mM EDTA, 10% glycerol, 0.1% NP-40, 1 mM DTT, 0.05 mg/mL BSA, room temp 30 min; recombinant protein; residues 1-393; label: 5' 32P on reverse strand

## TAGAGCGAACATGTCTGCGTCG (double strand) [deleted half site DNA (EMSA)]
  binding result: binds more weakly

Reference: article PMC7528078
